Experimental data from PMC7092493.
Results are given in words; binding and its absence hold for the method and conditions named. In cells and extracts the contact can be indirect. Here binding means that the protein was enriched with, or labelled near, the bait; the list need not be complete. For some assays here: Sequences can lack the tags named with a protein.

Columns and labels:
[1] = biological target: T1, endogenous Codanin-1 (human (endogenous in HeLa)) (UniProt Q8IWY9); assay: affinity purification with mass spectrometry; immunoprecipitation of endogenous Codanin-1 or overexpressed Flag-tagged Codanin-1 from HeLa lysate on protein A-sepharose with antibody, 4 °C, washes with PBS, MS/MS of the eluate
T1 sequence: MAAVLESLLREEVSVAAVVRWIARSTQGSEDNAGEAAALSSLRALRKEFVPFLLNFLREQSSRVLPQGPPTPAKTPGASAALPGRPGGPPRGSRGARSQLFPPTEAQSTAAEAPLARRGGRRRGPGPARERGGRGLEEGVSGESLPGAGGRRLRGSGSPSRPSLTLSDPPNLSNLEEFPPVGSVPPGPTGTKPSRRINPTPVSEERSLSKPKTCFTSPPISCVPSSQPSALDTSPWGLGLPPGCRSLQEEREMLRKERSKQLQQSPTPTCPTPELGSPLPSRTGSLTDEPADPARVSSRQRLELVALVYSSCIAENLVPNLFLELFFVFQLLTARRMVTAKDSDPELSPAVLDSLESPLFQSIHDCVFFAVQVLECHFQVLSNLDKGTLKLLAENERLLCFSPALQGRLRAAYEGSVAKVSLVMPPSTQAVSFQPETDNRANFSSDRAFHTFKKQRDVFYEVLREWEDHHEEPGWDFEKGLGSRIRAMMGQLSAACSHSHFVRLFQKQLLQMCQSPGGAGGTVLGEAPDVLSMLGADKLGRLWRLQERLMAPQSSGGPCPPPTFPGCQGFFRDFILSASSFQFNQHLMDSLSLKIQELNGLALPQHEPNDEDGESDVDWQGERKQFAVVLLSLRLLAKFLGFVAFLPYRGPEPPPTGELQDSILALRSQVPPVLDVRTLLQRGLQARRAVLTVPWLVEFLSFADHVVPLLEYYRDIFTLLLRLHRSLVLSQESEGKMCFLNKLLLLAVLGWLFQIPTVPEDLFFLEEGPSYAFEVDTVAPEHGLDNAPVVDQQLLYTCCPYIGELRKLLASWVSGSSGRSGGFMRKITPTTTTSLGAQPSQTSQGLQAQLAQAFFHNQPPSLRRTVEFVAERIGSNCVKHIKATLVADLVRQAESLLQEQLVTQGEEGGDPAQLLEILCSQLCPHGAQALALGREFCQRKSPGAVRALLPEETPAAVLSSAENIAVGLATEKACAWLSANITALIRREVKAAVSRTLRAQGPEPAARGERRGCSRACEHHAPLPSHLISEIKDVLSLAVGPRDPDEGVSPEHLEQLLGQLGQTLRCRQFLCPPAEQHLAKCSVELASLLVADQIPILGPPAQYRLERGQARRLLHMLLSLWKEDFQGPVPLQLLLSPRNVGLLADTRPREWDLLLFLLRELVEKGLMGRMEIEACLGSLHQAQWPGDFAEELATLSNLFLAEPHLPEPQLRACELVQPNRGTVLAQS

[2] = biological target: T2, Flag-tagged Codanin-1 (human) (UniProt Q8IWY9); assay: as above
T2 sequence: T1 sequence

B1: C15Orf41 (endogenous) (protein, UniProt Q9Y2V0-1 1-281)
chain: MILTKAQYDEIAQCLVSVPPTRQSLRKLKQRFPSQSQATLLSIFSQEYQKHIKRTHAKHHTSEAIESYYQRYLNGVVKNGAAPVLLDLANEVDYAPSLMARLILERFLQEHEETPPSKSIINSMLRDPSQIPDGVLANQVYQCIVNDCCYGPLVDCIKHAIGHEHEVLLRDLLLEKNLSFLDEDQLRAKGYDKTPDFILQVPVAVEGHIIHWIESKASFGDECSHHAYLHDQFWSYWNRFGPGLVIYWYGFIQELDCNRERGILLKACFPTNIVTLCHSIA
binding [1]: binds
binding [2]: binds
